Experimental data as given in patent publication US11202835B2, “Method of controlled competitive exchange” (Anteo Technologies Pty Ltd, priority 2015, dated 2021).

System: mouse IgG
Assay: Competitive release of 5-carboxyfluorescein (first agent) from metal complex activated magnetic particles by mouse IgG
Details: FIG. 2

With `O=C(O)c1ccc2c(c1)C(=O)OC21c2ccc(O)cc2Oc2cc(O)ccc21` [5-carboxyfluorescein] the “release of 5-carboxyfluorescein from the particles, effect of first agent binding temperature” value (first agent bound at 45° C. compared to 25° C.) was “significantly less” and the “release of 5-carboxyfluorescein from the particles into the supernatant” value (various mouse IgG concentrations (50-1250 μg/mL), 30 minutes) was “increasing mouse IgG concentration correlated with a greater release”.
